Laboratory results as given in the supplement of paper PMC12282887.
These are raw signals, not scaled to a control.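 The top concentration was set near the MIC for antimicrobials, at 500 µM for most other compounds, and up to 1 mM for known inducer-like compounds. Deletion strains started from a tenfold smaller inoculum, and wells growing below 10% of the overall median were treated as non-growing.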

Tested on: Escherichia coli BW25113
Test: growth (OD600 area under curve, 8 h) (OD600 x h); higher = more growth
Experimental: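 E. coli BW25113 reporter strains (wild type, ΔmarA, ΔsoxS, Δrob, each carrying one of 8 lux reporter plasmids) were grown in 40 µl LB in 384-well plates at 37°C, 800 rpm, with each compound at 4 two-fold concentrations, in biological duplicates. Growth is the baseline-corrected OD600 area under the curve over 8 h (0-8 h WT, 1-9 h deletion strains).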

CN(C)c1ccc(O)c2c1C[C@H]1C[C@H]3[C@H](N(C)C)C(O)=C(C(N)=O)C(=O)[C@@]3(O)C(O)=C1C2=O [Minocycline]
growth
Conditions | reporter plasmid: EVC | reporter plasmid: acrABp | reporter plasmid: marRABp | reporter plasmid: micFp | reporter plasmid: ompFp | reporter plasmid: robp | reporter plasmid: soxSp | reporter plasmid: tolCp
0.062 µg/ml, genetic background: wild type | 3.34 | 3.4 | 3.36 | 3.18 | 3.18 | 3.34 | 3.15 | 3.22
0.062 µg/ml, genetic background: ΔmarA | 3.67 | 4.33 | 3.83 | 3.52 | 3.74 | 4.14 | 3.47 | 3.41
0.062 µg/ml, genetic background: Δrob | 3.24 | 3.074 | 3.52 | 3.34 | 2.82 | 2.94 | 3.16 | 3.4
0.062 µg/ml, genetic background: ΔsoxS | 3.57 | 3.59 | 3.48 | 3.3 | 3.226 | 3.55 | 3.45 | 3.51
0.12 µg/ml, genetic background: wild type | 3.05 | 3.23 | 3.12 | 3.18 | 3.25 | 3.3 | 3.163 | 3.278
0.12 µg/ml, genetic background: ΔmarA | 3.47 | 4.43 | 3.95 | 3.58 | 3.75 | 4.16 | 3.31 | 3.4
0.12 µg/ml, genetic background: Δrob | 2.99 | 2.95 | 3.54 | 3.28 | 2.87 | 2.8 | 2.94 | 3.27
0.12 µg/ml, genetic background: ΔsoxS | 3.25 | 3.43 | 3.27 | 3.123 | 3.22 | 3.36 | 3.26 | 3.353
0.25 µg/ml, genetic background: wild type | 3.23 | 3.31 | 3.51 | 3.02 | 3.14 | 3.4 | 3.17 | 3.18
0.25 µg/ml, genetic background: ΔmarA | 3.78 | 4.27 | 4.04 | 3.58 | 3.77 | 4.34 | 3.55 | 3.5517
0.25 µg/ml, genetic background: Δrob | 3.18 | 3.28 | 3.52 | 3.33 | 2.95 | 2.89 | 3.05 | 3.33
0.25 µg/ml, genetic background: ΔsoxS | 3.49 | 3.52 | 3.47 | 3.24 | 3.469 | 3.67 | 3.5 | 3.46
0.49 µg/ml, genetic background: wild type | 2.79 | 2.18 | 2.24 | 2.64 | 2.51 | 2.35 | 2.67 | 2.86
0.49 µg/ml, genetic background: ΔmarA | 3.46 | 3.8 | 3.25 | 3.45 | 3.18 | 3.9 | 3.15 | 3.25
0.49 µg/ml, genetic background: Δrob | 2.63 | 1.65 | 2.19 | 2.91 | 2.14 | 1.71 | 2.8 | 2.78
0.49 µg/ml, genetic background: ΔsoxS | 3.168 | 2.52 | 2.84 | 2.68 | 2.77 | 2.8 | 3.18 | 3.19

CO[C@@]12[C@H](COC(N)=O)C3=C(C(=O)C(C)=C(N)C3=O)N1C[C@@H]1N[C@@H]12 [Mitomycin C]
growth
Conditions | reporter plasmid: EVC | reporter plasmid: acrABp | reporter plasmid: marRABp | reporter plasmid: micFp | reporter plasmid: ompFp | reporter plasmid: robp | reporter plasmid: soxSp | reporter plasmid: tolCp
0.063 µg/ml, genetic background: wild type | 2.84 | 2.92 | 3.24 | 3.05 | 2.79 | 3.09 | 2.88 | 3.11
0.063 µg/ml, genetic background: ΔmarA | 3.44 | 3.9 | 3.76 | 3.09 | 3.37 | 3.67 | 2.95 | 2.95
0.063 µg/ml, genetic background: Δrob | 2.76 | 2.72 | 3.06 | 3.33 | 2.49 | 2.48 | 2.95 | 3.15
0.063 µg/ml, genetic background: ΔsoxS | 2.93 | 2.92 | 3.07 | 2.53 | 2.56 | 2.98 | 2.92 | 2.8
0.13 µg/ml, genetic background: wild type | 2.7 | 2.89 | 3.06 | 2.87 | 2.81 | 2.88 | 2.62 | 2.93
0.13 µg/ml, genetic background: ΔmarA | 3.25 | 3.8 | 3.29 | 3.06 | 2.83 | 2.83 | 2.91 | 2.95
0.13 µg/ml, genetic background: Δrob | 2.79 | 3.02 | 2.89 | 3.004 | 2.4 | 2.55 | 2.88 | 2.89
0.13 µg/ml, genetic background: ΔsoxS | 2.92 | 2.97 | 2.99 | 2.5 | 2.32 | 2.83 | 2.76 | 2.71
0.25 µg/ml, genetic background: wild type | 2.73 | 2.8 | 3.28 | 2.97 | 2.95 | 2.85 | 2.78 | 3.13
0.25 µg/ml, genetic background: ΔmarA | 3.36 | 4.13 | 3.97 | 3.03 | 3.49 | 3.89 | 3.02 | 2.95
0.25 µg/ml, genetic background: Δrob | 2.77 | 3.03 | 3.22 | 3.22 | 2.58 | 2.69 | 2.89 | 2.99
0.25 µg/ml, genetic background: ΔsoxS | 2.75 | 2.89 | 3.16 | 2.36 | 2.56 | 3.06 | 2.87 | 2.72
0.5 µg/ml, genetic background: wild type | 2.61 | 2.42 | 2.9405 | 2.64 | 2.453 | 2.66 | 2.45 | 2.6
0.5 µg/ml, genetic background: ΔmarA | 2.9 | 3.39 | 3.02 | 2.75 | 2.48 | 3.2 | 2.74 | 2.67
0.5 µg/ml, genetic background: Δrob | 2.63 | 3.11 | 3.05 | 2.7 | 2.23 | 2.44 | 2.75 | 2.91
0.5 µg/ml, genetic background: ΔsoxS | 2.44 | 2.83 | 3.04 | 2.07 | 2.41 | 3.17 | 2.45 | 2.56
